Article PMC12221368, “Long AKAP18 isoforms anchor ubiquitin specific proteinases and coordinate calcium reuptake at the sarcoplasmic reticulum” (The Journal of Biological Chemistry, 2025)
Results are given in words; binding and its absence hold for the method and conditions named. Binding seen in cells or lysates may run through a third protein. Binding calls can cover weak binding; strength is not graded here. For some assays here: Where a sequence is shown, tags or fusion partners need not be part of it.

Key:
[1] = target: AKAP18 (endogenous, mouse heart) (mouse (endogenous in adult cardiomyocytes and heart)); assay: proximity ligation; fixed isolated mouse adult cardiomyocytes, endogenous proteins, antibody pairs (RIIα + AKAP18; USP4 + AKAP18); control with secondary antibodies alone
GFP-AKAP18γ = assay: co-IP; HEK293 cells cotransfected with GFP-AKAP18 isoforms and V5-USP4; lysis buffer 25 mM Hepes pH 7.4, 150 mM NaCl, 1% Triton X-100; rabbit anti-GFP IgG and protein A agarose, 2 h at 4 °C; anti-V5 blot; IgG controls

binding [1]	binding (GFP-AKAP18γ)	Binder
binds		USP4 (endogenous, mouse) (enzyme, UniProt P35123 1-962) MAEGRGSRERPDVETQKTELGALMGTTLQRGAQWYLIDSRWFKQWKKYVGFDSWDMYNVGEHNLFPGPIDNSGLFSDPESQTLKEHLIDELDYVLVPAEAWNKLLNWYGCVEGQQPIVRKVVEHGLFVKHCKVEVYLLELKLCENSDPTNVLSCHFSKADTIATIEKEMRKLFNIPAERETRLWNKYMSNTYEQLSKLDNTIQDAGLYQGQVLVIEPQNEDGTWPRQSLQSKSSTAPSRNFTTSSKPSASPYCSVSASLIANGDSTNSSGMHSSGVSRGGSGFSASYNCQEPPSPHIQPGLCGLGNLGNTCFMNSALQCLSNTAPLTEYFLKDEYEAEINRDNPLGMKGEIAEAYAELIKQMWSGRDTHVAPRMFKTQVGRFAPQFSGYQQQDSQELLAFILDGLHEDLNRVKKKPYLEPKDANGRPDAVVAKEAWENHRLRNDSVIVDTFHGLFKSTLVCPECAKVSVTFDPFCYLTLPLPLKKDRIMEVFLVPADPQCRPIQYRVTVPLMGAISDLCEALSKLSGIAAENMVVTDVYNHRFHKIFQMDEGLSHITPRDDIFVYEVCNTSMDGSECITLPVYFREKKSRPSSASSGAVLYGQPLLVSVPKHKLTLESLYQAVCDRISRYIKQPLPDEFLSSPLEPGACNGSRSSYEGDEEEEMDHQEEGKEQLSEVEGSGEDDQGDDHSESAQKVKGQPRHKRLFTFSLVNSCGTADINSLATDGKLLKLNSRSTLAIDWDSETRSLYFDEQESEACEKHLSMSQPQKKKKAAVALRECIELFTTMETLGEHDPWYCPTCKKHQQATKKFDLWSLPKILVVHLKRFSYNRYWRDKLDTVVEFPVRALNMSEFVCDRSARPYVYDLIAVSNHYGAMGVGHYTAYAKNRLNGKWYYFDDSSVSLASEDQIVTKAAYVLFYQRRDDECSSTSSLGSFPGSDGGVKLSSSHQGMGDEEAYNMDTN
	binds	V5-tagged USP4 (enzyme, UniProt Q13107 1-963, looked up) MAEGGGCRERPDAETQKSELGPLMRTTLQRGAQWYLIDSRWFKQWKKYVGFDSWDMYNVGEHNLFPGPIDNSGLFSDPESQTLKEHLIDELDYVLVPTEAWNKLLNWYGCVEGQQPIVRKVVEHGLFVKHCKVEVYLLELKLCENSDPTNVLSCHFSKADTIATIEKEMRKLFNIPAERETRLWNKYMSNTYEQLSKLDNTVQDAGLYQGQVLVIEPQNEDGTWPRQTLQSKSSTAPSRNFTTSPKSSASPYSSVSASLIANGDSTSTCGMHSSGVSRGGSGFSASYNCQEPPSSHIQPGLCGLGNLGNTCFMNSALQCLSNTAPLTDYFLKDEYEAEINRDNPLGMKGEIAEAYAELIKQMWSGRDAHVAPRMFKTQVGRFAPQFSGYQQQDSQELLAFLLDGLHEDLNRVKKKPYLELKDANGRPDAVVAKEAWENHRLRNDSVIVDTFHGLFKSTLVCPECAKVSVTFDPFCYLTLPLPLKKDRVMEVFLVPADPHCRPTQYRVTVPLMGAVSDLCEALSRLSGIAAENMVVADVYNHRFHKIFQMDEGLNHIMPRDDIFVYEVCSTSVDGSECVTLPVYFRERKSRPSSTSSASALYGQPLLLSVPKHKLTLESLYQAVCDRISRYVKQPLPDEFGSSPLEPGACNGSRNSCEGEDEEEMEHQEEGKEQLSETEGSGEDEPGNDPSETTQKKIKGQPCPKRLFTFSLVNSYGTADINSLAADGKLLKLNSRSTLAMDWDSETRRLYYDEQESEAYEKHVSMLQPQKKKKTTVALRDCIELFTTMETLGEHDPWYCPNCKKHQQATKKFDLWSLPKILVVHLKRFSYNRYWRDKLDTVVEFPIRGLNMSEFVCNLSARPYVYDLIAVSNHYGAMGVGHYTAYAKNKLNGKWYYFDDSNVSLASEDQIVTKAAYVLFYQRRDDEFYKTPSLSSSGSSDGGTRPSSSQQGFGDDEACSMDTN
